Experimental data reported in patent US4950650A, “Novel arginine vasopressin-binding peptides” (University of Florida, priority 1988, dated 1990).
Not every detail of the peptide structures is certain; ends, links or a residue may be inferred. Where no end group is shown, it is not given here.

Legend:
[1] = tested on: AVP helper signal for IFN production; assay: AVP helper signal for IFN production in helper cell depleted spleen cell cultures; type: cell-based, mouse; details: for Minimal concentration needed to block IFN production: carried out as described in Table 1, block of AVP function; for IFN: helper cell depleted; for block of AVP function: Table 2
C57B1/6 spleen cells = assay: IFN production in SEA-stimulated whole spleen cell cultures; type: cell-based, mouse; details: Expt 1, SEA 0.5 μg/ml, 3 days, binding peptide 150 μM, no AVP or IL 2
[2] = tested on: IL 2 help in IFN production; assay: IL 2 helper signal for IFN production in helper cell depleted spleen cell cultures; type: cell-based, mouse
[3] = tested on: PA helper signal for IFN production; assay: Pressinoic acid (PA) help in IFN production in helper cell depleted spleen cell cultures; type: cell-based, mouse; details: Table 4
[4] = tested on: AVP receptor on splenic lymphocyte; assay: Binding of 3H-AVP to receptor on splenic lymphocyte membranes; parameters: species or system mouse; details: for DPM (Mean ± SD): 300 nM 3H-AVP
Experimental: Membranes were prepared as previously described (Torres and Johnson [1988] supra). Freshly dissociated spleen cells were incubated on plastic at 37° C. for 1 hr to remove adherent cells. Plates were washed and non-adherent cells were incubated for an additional hour at 37° C. Washed non-adherent cells were resuspended in 50 mM Tris-HCl buffer (pH 7.4) containing 10 mM EGTA and 10 μM phenylmethylsulfonylfluoride (PMSF), which generally lysed any red blood cells in the preparation. Additional red blood cell lysis was performed using 10 mM potassium bicarbonate buffer containing 16 mM ammonium chloride and 100 μM ethylenediaminetetraacetic acid (EDTA). Cells were washed twice and sonicated on ice using a Fisher Model 300 Sonicator (Fisher Scientific, Pittsburgh, Penna.) with microprobe. Preparations were monitored microscopically and were sonicated until greater than 95% cell rupture was achieved. Sonicated preparations were centrifuged at 1000×g at 4° C. to remove debris and large particles. Supernatants were then spun at 33,000 rpm (55,000×g) at 4° C. for 45 min in a Sorvall UTD65B Ultracentrifuge (T1270 rotor) to isolate membranes. Resulting membrane preparations were resuspended in 50 mM Tris-HCl (pH 7.4) containing 10 mM MgCL2 and 10 μM PMSF, and aliquots were stored at -70° C.
Membranes (30 μg/ml) were incubated in a final volume of 200 μl with cold AVP and/or AVP-binding peptide for 20 min. prior to the addition of 300 nM ^3 H-AVP (specific activity, 70 Ci/mmol; New England Nuclear, Boston, Mass.). Binding was carried out at room temperature for 30 min., at which time samples were placed on ice to stop further binding. Membranes were washed through 0.45 μm filters (GVWP; Millipore, Bedford, Mass.) presoaked in 2% bovine serum albumin (BSA) with approximately 50× volume of ice cold reaction buffer (50 mM Tris-HCl, pH 7.4, 10 mM MgCl2, 2% BSA, 10 μM PMSF). Filters were then placed in scintillation vials and radioactivity was counted on a beta-scintillation counter.

[5] = C57B1/6 mouse spleen cell system, Table 1 Expt. 1

TMDVLTGSP [(Asp)^3]
Minimal concentration needed to block IFN production [1]: 300 µM
less effective than original peptide in blocking AVP function ([1]; from Table 2): 50%

TMKVLTGSP [AVP-binding peptide]
IFN (C57B1/6 spleen cells): 825 ± 35 U/ml
concentration at which peptide blocked restoration of competence by AVP [1, 5]: 100 µM
IFN ([1]; Expt 1, AVP 10 nM + binding peptide 50 μM): 625 ± 35 U/ml
IFN ([1]; Expt 1, AVP 10 nM + binding peptide 100 μM): < 3 U/ml
IFN ([1]; Expt 1, AVP 10 nM + binding peptide 150 μM): < 3 U/ml
IFN ([1]; Expt 2, AVP 1000 nM + binding peptide 100 μM): < 3 U/ml
IFN ([1]; Expt 2, AVP 3000 nM + binding peptide 100 μM): 350 ± 71 U/ml
IFN ([1]; Table 4, AVP (100) (nm) + binding peptide 150 μM): < 3 U/ml
Minimal concentration needed to block IFN production [1]: 150 µM
effect on IL 2 help [2, 5]: no inhibitory effect
IFN ([2]; Expt 1, helper cell depleted, IL 2 3 U/ml + binding peptide 150 μM): 650 ± 71 U/ml
IFN ([3]; helper cell depleted, PA (10) (nm) + binding peptide 150 μM): 110 ± 14 U/ml
effect on PA helper signal for IFN production ([3]; binding peptide alone): failed to block
DPM (Mean ± SD) ([4]; competitor 1,000.0 μM): 5,489 ± 123 DPM
DPM (Mean ± SD) ([4]; competitor 10,000.0 μM): 5,383 ± 450 DPM
effect on binding of 300 nM 3H-AVP to lymphocyte receptors ([4]; concentrations as high as 10,000 μM): no effect

TMVVLTGSP [(Val)^3]
block of AVP function [1]: did not block AVP function
Minimal concentration needed to block IFN production [1]: > 300 µM

TMRVLTGSP [(Arg)^3]
block of AVP function [1]: blocked AVP function at the same concentration as the original peptide
Minimal concentration needed to block IFN production [1]: 150 µM
